Inconclusive results, whose numbers are uncertain, are shown with a selection of clear calls. Potencies beside an inconclusive call are fits to weak or partial responses and may not hold up. Where a structure was tested more than once in an assay, its records may differ in their call. The source made the active and inactive calls. Calls come from the whole dose curve.
Assay: p53 small molecule agonists, cell-based qHTS assay with human liver microsomes: qHTS cell viability counter screen (AID 1963579); note: nearly all actives have a fitted effect of over 45% in size
Details: p53RE-bla HCT-116 viability, ATP luminescence, 16 h, HLM; series mostly up to 66 µM
How it was run: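 Metabolic activation used human liver microsomes and NADPH, both 0.5 mg/mL final, over 16 hours at 37 C on p53RE-bla cells (4,000/well). Cytotoxicity measured by CellTiter-Glo luminescence, 30 min at room temperature.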
With `CCCCCCCCn1sccc1=O` the Potency was active: 40.9 µM.
With `CCSC(=O)N1CCCCCC1` the Potency was inconclusive: 17.7 µM [rising, partial curve].
In the case of `O=C(O)C1C(C(=O)O)C2(Cl)C(Cl)=C(Cl)C1(Cl)C2(Cl)Cl` (configuration not stated), the Potency is reported as “inactive”.
With `CN(C)c1ccc(N=O)cc1` the Potency was inconclusive: 51.3 µM [cytotoxic, single point].
In the case of `ClCCOCCCl`, the Potency is reported as inconclusive: 4.6 µM [cytotoxic, single point].
For `Cc1ccc(OP(=O)(Oc2ccc(C)cc2)Oc2ccc(C)cc2)cc1`, the Potency was inconclusive: 5.75 µM [rising, full curve].
With `O=C(Nc1ccc2[nH]ccc2c1)c1cc2cc(F)ccc2n1Cc1cccc(F)c1` the Potency was inconclusive: 4.58 µM [rising, partial curve].
Potency is the fitted concentration of half-maximal effect.
